Measurements reported in PubChem BioAssay AID686943 (Drosophila RNAi Screening Center, 2013)
In all, the deposit lists about 23,000 reagents; below is a random part of those that have a named target and a result. 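Extra replicates exist only for a retested subset of genes; insulin dose and duration not given; both raised and lowered dpERK matter.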 A plus sign joins genes that one reagent is predicted to hit. Further read-outs or replicates are left out here. Not stated in the record: the amount of reagent, the time to read-out.

Screen: 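Search across the genome for regulators of signalling from receptor tyrosine kinase to ERK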 (primary screen)
Cells: Drosophila S2R+ haemocyte-like cells expressing YFP-tagged ERK (Rolled)
Reagent: long dsRNA against Drosophila genes
Conditions: insulin stimulation versus unstimulated cells; dose and duration not given
Read-out: 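Per-plate z-scores of phospho-ERK immunostaining normalised to YFP-tagged ERK, measured with and without insulin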
Reading the numbers: replicate 1, z-score of dpERK with insulin and replicate 2, z-score of dpERK with insulin: higher = more active ERK per ERK-YFP after insulin

CG33631 [DRSC12763] scored replicate 1, z-score of dpERK with insulin 0.83; replicate 2, z-score of dpERK with insulin 0.08.
Silencing of Naxd (NAD(P)HX dehydratase) [DRSC09722] came out at: replicate 1, z-score of dpERK with insulin -0.33; replicate 2, z-score of dpERK with insulin -0.11.
Against Pkc53E (Protein C kinase 53E) [DRSC05636], the entry reads replicate 1, z-score of dpERK with insulin -0.09; replicate 2, z-score of dpERK with insulin -0.31.
Depletion of Pkc53E (Protein C kinase 53E) [DRSC07510] came out at: replicate 1, z-score of dpERK with insulin -0.03; replicate 2, z-score of dpERK with insulin 0.12.
Silencing of ProtB (Protamine B) [DRSC03373] resulted in: replicate 1, z-score of dpERK with insulin 0.14; replicate 2, z-score of dpERK with insulin -0.6.
DIP-epsilon (Dpr-interacting protein epsilon) [DRSC00932] scored replicate 1, z-score of dpERK with insulin 1.61; replicate 2, z-score of dpERK with insulin 1.94.
Against DIP-epsilon (Dpr-interacting protein epsilon) [DRSC02313], the values are replicate 1, z-score of dpERK with insulin -0.08; replicate 2, z-score of dpERK with insulin 0.47.
Depletion of Hydr2 (alpha/beta hydrolase2) [DRSC00607] gave: replicate 1, z-score of dpERK with insulin -0.11; replicate 2, z-score of dpERK with insulin -0.15.
CG8046 [DRSC07059] gave replicate 1, z-score of dpERK with insulin 0.78; replicate 2, z-score of dpERK with insulin 1.3.
Depletion of xmas [DRSC21306] resulted in: replicate 1, z-score of dpERK with insulin -0.5; replicate 2, z-score of dpERK with insulin 0.96.
With knock-down of xmas [DRSC22178], the screen gave replicate 1, z-score of dpERK with insulin 0.11; replicate 2, z-score of dpERK with insulin 1.61.
With knock-down of CG14013 [DRSC02344] the results were replicate 1, z-score of dpERK with insulin 1.64; replicate 2, z-score of dpERK with insulin 0.69.
Against CG13955 [DRSC06443] the deposit lists replicate 1, z-score of dpERK with insulin -0.72; replicate 2, z-score of dpERK with insulin 0.63.
tai (taiman) [DRSC02207] gave replicate 1, z-score of dpERK with insulin -1.57; replicate 2, z-score of dpERK with insulin -3.17.
With knock-down of tai (taiman) [DRSC02673], the screen gave replicate 1, z-score of dpERK with insulin 0.01; replicate 2, z-score of dpERK with insulin 0.04.
dor (deep orange) [DRSC18765] scored replicate 1, z-score of dpERK with insulin 1.24; replicate 2, z-score of dpERK with insulin -0.91.
Depletion of CG43253 (retired record) [DRSC09529] resulted in: replicate 1, z-score of dpERK with insulin 0.9; replicate 2, z-score of dpERK with insulin 0.28.
Depletion of woc (without children) [DRSC15928] resulted in: replicate 1, z-score of dpERK with insulin 0.93; replicate 2, z-score of dpERK with insulin -0.45.
Silencing of CG7215 + Prx5 [DRSC16214] gave: replicate 1, z-score of dpERK with insulin 0.04; replicate 2, z-score of dpERK with insulin 0.
CG7215 + Prx5 [DRSC16215] scored replicate 1, z-score of dpERK with insulin -0.22; replicate 2, z-score of dpERK with insulin -0.35.
Smyd4-3 (SET and MYND domain containing, class 4, member 3) [DRSC07041] showed replicate 1, z-score of dpERK with insulin 0.1; replicate 2, z-score of dpERK with insulin 0.73.

2 entries already listed, arranged by “replicate 1, z-score of dpERK with insulin”, lowest first:
Pkc53E (Protein C kinase 53E) [DRSC07510]: replicate 1, z-score of dpERK with insulin = -0.03; replicate 2, z-score of dpERK with insulin = 0.12
ProtB (Protamine B) [DRSC03373]: replicate 1, z-score of dpERK with insulin = 0.14; replicate 2, z-score of dpERK with insulin = -0.6
